Measured values published in US6841533B1 (Peptor Limited, priority 1995, dated 2005).

Assay: general procedure: Fmoc solid-phase peptide synthesis; Tenta-Gel resin (0.22 mmol/g)
Settings: whole synthesis, analytical HPLC and capillary electrophoresis, scale of the general procedure 1 g resin, MPS 1-5 μmole per well, cyclic, sequence written open

Trp-Arg-Lys-(D)Arg-Phe-AlaC3-Leu-Arg-(D)Tyr-AlaN3-NH2
final HPLC purity: 100% purity
